PMC10163288
This is one part of the list.

B1: il2ra_site2_2erj_sap_24_mot_HHH_b2_01191_000000089_0001_39_55_H_._cf47d7165ffc3c79bdff036d7a8fd663_0001_1_0001_0000100002_0000001_0_0001 (protein)
chain: SSSSSDLLHRAYELANKLLHLVARKDEERFEEISEEFREIVERLQSENAREILENLERLLSSSSS
B2: il2ra_site1_3nfp_normal_mot_HHH_b1_07644_af2_000000110_0001_40_57_H_._HHH_b1_08167_af2_0001_0000100004_0000001_0 (protein)
chain: SSSSDERVEQASKLAKELWKAFRDGDEELVEELFEEVRRLAEELGDKIAEKLVRQLRELSNSSSS
B3: il2ra_site1_2b5i_normal_mot_HHH_b1_08426_af2_000000046_0001_39_52_H_._HHH_b1_02119_af2_0001_0000100008_0000001_0_af2pred_0001_af2pred_1 (protein)
chain: SSSSDELFHRVYELYLEASRLYQNGNPEEAEELLREALKLAEENNDPRLFKDVEQFLKALGSSSS
B4: il2ra_site2_3nfp_normal_mot_HHH_b1_04084_000000061_0001_23_39_H_._HHH_b1_06545_0001_0000100008_0000001_0 (protein)
chain: SSSSDEEVRRLIEEAEELLERGDPEEARRVLQRAVLLAAELRDRELFARLNELFELVVELSSSSS
B5: il2ra_site2_3nfp_normal_mot_HHH_b1_03557_000000106_0001_41_55_H_._HHH_b1_02274_0001_0000100002_0000001_1 (protein)
chain: SSSSDEEAREYVEEARELFEEGNHEEARKVLSKAVELVFEAGDFELFAILLELLAKIIQRSSSSS
B6: il2ra_site1_2b5i_sap_9_mot_HHH_b1_08678_af2_000000008_0001_41_54_H_._HHH_b2_03648_0001_0000600031_0000001_0_0001_af2pred_dldesign_0_af2pred (protein)
chain: SSSSSSPLEEAKKLLEEAKEALAAGDRRGALELLEKAYKLASEANDEELMDEIEELAKLVSSSSS
B7: il2ra_site1_1z92_sap_14_mot_HHH_b1_05516_af2_000000202_0001_21_38_H_._HHH_b1_08435_0001_0000100010_0000001_0_0001 (protein)
chain: SSSSSRSEERLRFVLENIELLVENGNERAAKWAIRLAEALARLLNDEEVRERLEELREEVNSSSS
B8: il2ra_site1_1z92_sap_13_mot_HHH_b2_00249_af2_000000052_0001_39_52_H_._HHH_b2_08181_0001_0000500029_0000001_0_0001_af2pred_0001_af2pred (protein)
chain: SSSSDILEKALRFLEEQIELKLKRGNEEAVERLLEHLEKDAKDADDPEAEKFVEEVKREISSSSS
B9: il2ra_site2_3nfp_normal_mot_HHH_b2_07129_000000128_0001_19_36_H_._HHH_b2_06031_0001_0000100003_0000001_1 (protein)
chain: SSSSDEEEKEIEELLERVKELLKEGDPHEAFALLADALYLAVQINNEELRKAVSELTRELYSSSS
B10: il2ra_site1_2b5i_sap_14_mot_HHH_b2_08285_000000041_0001_42_55_H_._HHH_b2_00494_0001_0000300031_0000001_1_0001_af2pred_dldesign_0_af2pred (protein)
chain: SSSSSAEEQVRALLAKARELYEAGRPEEARKLLLLARRVAKKAKDPELVKLVEDEEARLLASSSS
B11: il2ra_site1_2b5i_normal_mot_HHH_b2_03377_af2_000000170_0001_25_41_H_._HHH_b2_07765_0001_0000100006_0000001_0 (protein)
chain: SSSSSSDELEELIERIEEALKEGDAELVAKLALELAKLAARLNDEEAQRFVLEVHRRRKSSSSSS
B12: il2ra_site1_3nfp_normal_mot_HHH_b1_08357_af2_000000270_0001_1_19_H_._HHH_b1_04898_0002_0000400009_0000001_0 (protein)
chain: SSSSSELEERIRELLEELEELLREGDDEEASKLAQEISRLIKELGDNELAEILWELIRRDISSSS
B13: il2ra_site1_1z92_normal_mot_HHH_b1_03834_000000063_0001_1_16_H_._HHH_b1_01329_0001_0000800050_0000001_0 (protein)
chain: SSSSNEESLERRVEFLIEQAEILGDEEVLERLRELLERAQEEGDFRLLLEAAKLIMEAVRNSSSS
B14: il2ra_site1_3nfp_sap_19_mot_HHH_b1_08723_000000044_0001_1_15_H_._HHH_b2_03161_af2_0001_0000300022_0000001_0_0001 (protein)
chain: SSSSSDEEIREEVERLLEEAEKIEDHEEAAKVFQEAYRLARELGDQELADLIYEVIHRWISSSSS
B15: il2ra_site1_2b5i_normal_mot_HHH_b1_01419_af2_000000080_0001_42_53_H_._HHH_b1_01280_af2_0001_0000300026_0000001_0_af2pred_dldesign_0_af2pred (protein)
chain: SSSSSDDEIYDLFLEALRLYQAGKKEEAIKLLEKALELAKKAKDEKAVKELEYFLERVKKSSSSS
B16: il2ra_site1_3nfp_normal_mot_HHH_b2_02053_000000240_0001_1_20_H_._8b3018496bece20695a4731cc719293d_0001_1_0001_0000100004_0000001_0_af2pred_0001_af2pred_1 (protein)
chain: GPEAEKRIVRLALELNSPRLLKKILENLERHLGDPREAERVLSELIAEVLKVPPEEAKEIVEEVK
B17: il2ra_site1_3nfp_normal_mot_ems_3hC_775_af2_000000149_0001_42_60_H_._HEEHE_2118_af2_0001_0000100003_0000001_0 (protein)
chain: DLEEEFKKAVERLAEIAGVPHVEVEVSNGEVEVTFEGDDQQARHASKLVRRAAEAFGIKVEVRVE
B18: il2ra_site2_3nfp_sap_20_mot_ce0e691d864d74cc0dee145e42b7b696_0001_1_af2_000000051_0001_34_49_H_._HHH_b1_03816_af2_0001_0000500031_0000001_0_0001 (protein)
chain: SSSSSDEEKLEEARELYEEGNPEEARKILLHLVSEAEEKGDRELLFRIMALANEVAAALISSSSS
B19: il2ra_site2_2erj_normal_mot_HHH_b1_01239_000000175_0001_43_57_H_._HHH_b1_04971_af2_0001_0000700017_0000001_0 (protein)
chain: SSSSSDSAEEALELAERAFEKGDRAEVRLILRFLELALEDTNDPRVEEAYERVEELLKELSSSSS
B20: il2ra_site2_3nfp_normal_mot_HHH_b1_06381_af2_000000237_0001_1_19_H_._HHH_b1_03565_af2_0001_0000200009_0000001_0 (protein)
chain: SSSSDREELAEFNLEYLRARGDEELFEELRELLERLRKHGDPELEEAIEELLHEIAEKAAGSSSS
B21: il2ra_site2_2erj_sap_17_mot_b5c6f2848cbf55e1ecbd417c35b42da7_0001_af2_000000155_0001_1_14_H_._HHH_b1_00942_af2_0001_0000800086_0000001_0_0001 (protein)
chain: SSSLRESFKLAVEALRELSRLFEEGDPEEAERLVEEVARQLEENGSPTAVRMLEEAFRALRSSSS
B22: il2ra_site2_2erj_sap_20_mot_HHH_b1_02757_000000121_0001_41_57_H_._HHH_b2_05554_0001_0000200009_0000001_0_0001 (protein)
chain: SSSSSHEEEVERLLEEAKEAYERGDLHLVYRLMVEALRVASEHQDDELLREIAEFVEELSSSSSS
B23: il2ra_site1_2b5i_normal_mot_HHH_b2_04353_af2_000000128_0001_1_17_H_._HHH_b1_07800_af2_0001_0000800040_0000001_0_af2pred_0001_af2pred (protein)
chain: SSSSSEADHEVTELYRRASELFRNGNPEEARELIEEALEIAERNNDETAVKDLERFLELLRSSSS
B24: il2ra_site1_3nfp_normal_mot_HHH_b1_01231_af2_000000170_0001_1_16_H_._HHH_b2_03769_0001_0000100007_0000001_0 (protein)
chain: SSSSDEELRELLQEILRLAFEGNTEEAKELLEELRELAEERNDPSVQKFVEVLERAIRLHESSSS
B25: il2ra_site2_3nfp_sap_15_mot_HHH_b2_04451_000000238_0001_21_37_H_._HHH_b2_00465_af2_0001_0000200003_0000001_0_0001 (protein)
chain: SSSSDVEERIKELLKQIEELEEEGDRNEVAQLLLEVLRLAVEANDREAARLVLEAFKELQSSSSS
B26: il2ra_site1_2b5i_sap_8_mot_HHH_b2_04131_000000150_0001_1_16_H_._HHH_b2_06569_af2_0001_0000100002_0000001_0_0001_af2pred_dldesign_0_af2pred (protein)
chain: SSSSSSAEEFVNEAIEKAKELKAAGRPDEARRLLKLALKRARKANDADLVARVEALLAELSSSSS
B27: il2ra_site2_2erj_normal_mot_HHH_b2_06005_000000006_0001_1_15_H_._HHH_b2_02812_0001_0000400022_0000001_0 (protein)
chain: SSSSDESEEEIERLIREAEEALEEGDPELAASLIIEAAHIAARNGDDELLEELRELFERVYSSSS
B28: il2ra_site1_1z92_normal_mot_HHH_b1_04615_af2_000000156_0001_38_52_H_._HHH_eva_0441_0001_0000700042_0000001_0 (protein)
chain: SSSSSSSSTEEWLEELAELAFRLGSRRNVEFLLRQARIEGDEELAEHIEELLRRLSSSSSSSSSS
B29: il2ra_site1_3nfp_sap_15_mot_HHH_b1_01231_af2_000000170_0001_1_16_H_._HHH_b1_02696_0001_0000100002_0000001_0_0001 (protein)
chain: SSSSSNEAARRVTELLRRALRIEDDEERERLLEEAQRLAEEFNDKIAKWLVEQVERLLEESSSSS
B30: il2ra_site1_2b5i_normal_mot_HHH_b2_04910_000000118_0001_1_19_H_._HHH_b1_03439_af2_0001_0000100003_0000001_0_af2pred_0001_af2pred (protein)
chain: SSSSSLTEQAVELLREANELDQNGNPEEAEEVLKEAKEFAERGGSKALLRMIEAALRLLKGSSSS
B31: il2ra_site1_3nfp_normal_mot_1cd86ef9f1587ae5d14d35bbbd8e7f1d_0001_1_000000087_0001_34_49_H_._HHH_b2_08068_0001_0000600032_0000001_0_af2pred_0001_af2pred_swapped (protein)
chain: SSSSDEEAEELLKEAQELVKELLERGDPNEASKVVEEVLRRLAELGNPEAAEELLEFAHKLSSSS
B32: il2ra_site2_2erj_sap_25_mot_HHH_b2_05804_000000098_0001_44_58_H_._HHH_b2_04034_0001_0000100007_0000001_0_0001 (protein)
chain: SSSSDERLRQLYELANLLMHLAAKGDEEEFEKVLKEAKELAEELDSENARELLEDLERLLSSSSS
B33: il2ra_site1_3nfp_sap_13_mot_0eddeacbb14b769e73e254714f31e2f9_0001_af2_000000052_0001_37_51_H_._HHH_b1_08594_0001_0000400033_0000001_0_0001 (protein)
chain: SSSSSDEEVERRVEELLEEARHVDPREAVELIQEAYRLAAEANDQELAEEIYRFMREMVQSSSSS
B34: il2ra_site2_2erj_sap_31_mot_HHH_b1_04859_000000124_0001_24_41_H_._ems_p1-16H-GBL-16H-GABBL-16H_0045_0001_0001_0002_0001_0000100002_0000001_0_0001 (protein)
chain: SSSSDDLHRLYELANELMQAIAEGDEEKARELIEELEELIEKSDSETAREILEWLERALESSSSS
B35: il2ra_site2_2erj_sap_18_mot_3b06bd03f1c6bceadc68eab912867b79_0001_000000296_0001_36_50_H_._HHH_b1_00587_0001_0000100003_0000001_0_0001_af2pred_0001_af2pred_1 (protein)
chain: SSSDREEVAEEVVERLVKELGLDEEAQRQLELSAELAIEAGFSPEQIEIFLKLVAEQLLKQLSSS
B36: il2ra_site2_3nfp_normal_mot_HHH_b1_05627_af2_000000038_0001_43_56_H_._HHH_b2_05144_0001_0000100001_0000001_0 (protein)
chain: SSSSKAEEYLRVALLLLRELLEEGDEEAARRVAEAALALAENLNDEEVEEEVRKVLEELESSSSS
B37: il2ra_site2_3nfp_normal_mot_HHH_b1_00660_af2_000000090_0001_40_57_H_._HHH_b1_00119_0001_0000400009_0000001_1_af2pred_0001_af2pred (protein)
chain: SSSSSDEEEEEIRELIEEAKQIEDPEEAKKVLRRASALAAELGNYELFAELVNLLERLGSSSSSS

molecular target: il2ra, P01589; test: yeast display titration

Apparent Kd, inactive:
B1 no binding seen
B2 no binding seen
B3 no binding seen
B4 no binding seen
B5 no binding seen
B6 no binding seen
B7 no binding seen
B8 no binding seen
B9 no binding seen
B10 no binding seen
B11 no binding seen
B12 no binding seen
B13 no binding seen
B14 no binding seen
B15 no binding seen
B16 no binding seen
B17 no binding seen
B18 no binding seen
B19 no binding seen
B20 no binding seen
B21 > 420 nM
B22 no binding seen
B23 no binding seen
B24 no binding seen
B25 no binding seen
B26 no binding seen
B27 no binding seen
B28 no binding seen
B29 no binding seen
B30 no binding seen
B31 no binding seen
B32 no binding seen
B33 no binding seen
B34 no binding seen
B35 no binding seen
B36 no binding seen
B37 no binding seen

No new results follow: entries from further up.
Apparent Kd, inactive:
B9 no binding seen
B10 no binding seen
B11 no binding seen
B12 no binding seen
B13 no binding seen
B14 no binding seen
